These results are taken from US20240009318A1.

No constants are given. Whether binding was seen depends on the method and setting. Some binding calls cover weakened binding; strength is not graded here.

Test [1] has as its target human EGFR protein (human) (UniProt P00533). Description: ELISA. A general note: An ELISA detects its analyte on a solid surface through an enzyme-linked reagent.
For test [2] the target is unchanged. Briefly: ELISA of binding to EGFR, 5-fold dilutions from 10 ug/mL, detection with HRP goat anti-human IgG Fc, OD 450/650 nm.

B1: BB0500-2gf (antibody, V domains shown)
VH: QVQLQESGPGLVKPSETLSLTCTVSGGSVSSGDYYWTWIRQSPGKGLEWIGHIYYSGNTNYNPSLKSRLTISIDTSKTQFSLKLSSVTAADTAIYYCVRDRVAGAFDIWGQGTMVTVSS
VL: DIQMTQSPSSLSASVGDRVTITCQASQDISNYLNWYQQKPGKAPKLLIYAASNLETGVPSRFSGSGSGTDFTFTISSLQPEDIATYFCQHFDHLPLAFGGGTKVEIKR
On to B1, for which the binding result in test [1] and in test [2] was “binds” throughout.

B2: BB0500-2g (antibody, V domains shown)
VH: QVQLQESGPGLVKPSETLSLTCTVSGGSVSSGDYYWTWIRQSPGKGLEWIGHIYYSGNTNYNPSLKSRLTISIDTSKTQFSLKLSSVTAADTAIYYCVRDRVAGAFDIWGQGTMVTVSS
VL: DIQMTQSPSSLSASVGDRVTITCQASQDISNALNWYQQKPGKAPKLLIYDASNLETGVPSRFSGSGSGTDFTFTISSLQPEDIATYFCQHFDHLPLAFGGGTKVEIKR
B2: the binding result in test [1] and in test [2] was “binds” in each case.
